Data on 1 substance can be found in article PMC8576903.

The chains behind the UniProt entries cited, without tags or fusion partners.
UniProt P01106: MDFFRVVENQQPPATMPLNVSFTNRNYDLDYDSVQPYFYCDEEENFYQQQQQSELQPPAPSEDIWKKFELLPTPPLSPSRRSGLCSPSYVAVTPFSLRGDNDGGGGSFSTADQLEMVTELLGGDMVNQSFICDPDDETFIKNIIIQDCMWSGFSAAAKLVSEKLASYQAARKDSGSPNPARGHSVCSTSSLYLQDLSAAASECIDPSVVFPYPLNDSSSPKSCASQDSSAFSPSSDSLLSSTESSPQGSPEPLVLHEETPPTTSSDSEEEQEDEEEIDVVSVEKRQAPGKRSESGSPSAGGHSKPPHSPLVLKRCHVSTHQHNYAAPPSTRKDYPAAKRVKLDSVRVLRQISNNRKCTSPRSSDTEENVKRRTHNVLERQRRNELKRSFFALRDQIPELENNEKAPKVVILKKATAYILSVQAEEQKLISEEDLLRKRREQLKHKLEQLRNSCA
UniProt P67809: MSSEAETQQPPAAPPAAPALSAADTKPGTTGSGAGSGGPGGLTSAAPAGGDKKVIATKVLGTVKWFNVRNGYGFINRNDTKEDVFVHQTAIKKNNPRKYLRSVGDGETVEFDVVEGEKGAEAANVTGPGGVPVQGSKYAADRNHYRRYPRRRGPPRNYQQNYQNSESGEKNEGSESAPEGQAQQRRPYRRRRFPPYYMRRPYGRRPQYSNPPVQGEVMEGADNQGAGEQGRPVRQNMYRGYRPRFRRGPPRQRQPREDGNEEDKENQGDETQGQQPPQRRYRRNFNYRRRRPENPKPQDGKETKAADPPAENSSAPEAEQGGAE

In the experiment the target is proto-oncogene c-Myc (human (endogenous in U937)) (UniProt P01106). The experiment can be described thus: co-IP; endogenous proteins in U937 cells; antibodies specific for YBX1 (ab76149) and MYC (ab32072), IgG as negative control, Western blot; also in U937 cells stably transfected with mock, GAS6-AS1, sh-Scb or sh-GAS6-AS1.

No constants are given. Whether binding was seen depends on the method and setting. In cells and extracts the contact can be indirect. Some entries that bind do so weakly or less than the wild type.

In the case of “Y-box binding protein 1 (from UniProt P67809 1-324)”, the binding result is “binds”.
